For some assays here: At least one read-out could not be matched to a standard name with certainty. For some assays here: At least one compound was matched to its structure with a doubt left.
What was measured:
[1] = baboon, at IUD removal
chlamydia = details: against chlamydia; cited from earlier work

SMILES	vaginal secretion DPV concentration as multiple of the IC90 (3.3 ng/ml) [1]	IC50 threshold (chlamydia) [micrograms per mL]
Cc1cc(C)c(Nc2ccnc(Nc3ccc(C#N)cc3)n2)c(C)c1 [DPV, dapivirine]	over 1000 times	
C[C@H]1c2cccc(O)c2C(=O)C2=C(O)[C@]3(O)C(=O)C(C(N)=O)=C(O)[C@@H](N(C)C)[C@@H]3[C@@H](O)[C@@H]21 [doxycycline]		0.497

— US20250152504A1, “INTRAUTERINE SYSTEMS COMPRISING ANTI-INFECTIVES FOR STEADY-STATE ACCUMULATION TO DISTAL EXTRAUTERINE TISSUE” (priority 2023, published 2025)
